Results as given in article PMC11343839, “Structural mechanism of proton conduction in otopetrin proton channel” (Nature Communications, 2024).
No constants are given. Whether binding was seen depends on the method and setting. Some binding calls cover weakened binding; strength is not graded here.

Target: mOTOP2 M374W (Mus musculus) (UniProt Q80SX5)
Experiment: cryo-EM structure; single-particle cryo-EM of protein purified in GDN detergent (20 mM Tris, 150 mM NaCl, 0.04% GDN), 3.0 mg/mL; samples at pH 5.0 and 8.0 (CeOTOP8), pH 5.0, 7.0, 8.0 and 9.0 (mOTOP2), pH 8.0 (mOTOP2 M374W); both purified

- binding: binds
B1: mOTOP2 M374W (natural protein, Mus musculus)
chain: MSEELVPHPNESLPGPRASPREVWKKGGRLLSVLLAVNVLLLACTLISGGAFNKVAVYDTDVFALLTTMMLLAALWIVFYLLRTARCPDAVPYRDAHAGPIWLRGGLVLFGICTLVMDVFKTGYYSSFFECQSAIKILHPIIQAVFVIVQTYFLWISAKDCIHTHLDLTRCGLMFTLATNLAIWMAAVVDESVHQAHSYSGSHGNTSHTRLNPDSKRAGGAAEEDPCLCSTAICQIFQQGYFYLYPFNIEYSLFASTMLYVMWKNVGRLLASTHGHGHTPSRVSLFRETFFAGPVLGLLLFVVGLAVFILYEVQVSGERGHTRQALVIYYSFNIVCLGLMTLVSLSGSVIYRFDRRAMDHHKNPTRTLDVALLWGAALGQYAISYYSIVAVVVGSPRDLQGALNLSHALLMIAQHTFQNVFIIESLHRGPPGAEPREMPPKEPCQGITFANLDAIRTLPSCPPTPRLVIPNLESPQEAVAIISAPRCHWRRRCLKDISLFLLLCNVILWIMPAFGARPHFSNTVEVDFYGYSLWAAIVNICLPFGIFYRMHAVSSLLEVYVLS
notes: Otopetrin 2 (mOTOP2), Mus musculus, with the point mutation M374W on TM9; same construct as the wild-type channel; The general purification protocol removes His10-GFP with thrombin; also called mOTOP2 M374W loss-of-function mutant; source: HEK293F cells (pEZTBM vector, same construct as the wild type), purified
